Reference: PMC3978604 (Arthritis Research & Therapy, 2013)

Assays:
[1] = system: human PBMCs, CD3+ T cells; assay: IL-2-induced STAT5 phosphorylation in CD3+ T cells (flow cytometry); assay type: cell-based; conditions: T-cell
Source text: (§1) For IL-2-induced STAT5 phosphorylation, cells were stained with FITC anti-human CD3 and Alexa Fluor 647 anti-STAT5(pY694), and quantitated pSTAT5 fluorescence intensity gated on the CD3^+ T-cell population. For IFNγ-induced STAT1 phosphorylation, cells were stained with PE anti-human CD14 (Beckman Coulter, Indianapolis, IN, USA) and Alexa Fluor 647 anti-STAT1 ([…]), and quantitated pSTAT1 fluorescence intensity gated on CD14^+ monocytes/macrophages.

[2] = system: human PBMCs, CD14+ monocytes; assay: IFNγ-induced STAT1 phosphorylation in CD14+ monocytes (flow cytometry); assay type: cell-based; conditions: Monocyte
Source text: as §1

SMILES: C[C@@H]1CCN(C(=O)CC#N)C[C@@H]1N(C)c1ncnc2[nH]ccc12 [tofacitinib, reference compound]
- IC50 [1]: 31 ± 13 nM
- IC50 [2]: 81 ± 50 nM
